Reference: PubChem BioAssay AID1347075 (National Center for Advancing Translational Sciences (NCATS), 2019)
The whole screen tested about 400,000 compounds, of which about 5,500 (1.4%) were called active. Inconclusive results, whose numbers are uncertain, are shown with a selection of clear calls. Calls come from the whole dose curve; as a rule, active = well fitted cell-killing curve with a large enough effect; inconclusive = small, poorly fitted or top-dose-only effect, or effect the other way; inactive = flat fitted curve, though single readings scatter. Where the call is inconclusive, the potency comes from a doubtful curve fit.

Assay: qHTS assay for MDR1-selective chemotherapeutics: Primary screen using the parental adenocarcinoma cell KB-3-1; note: nearly all actives have a fitted effect of over 60% in size
Settings: KB-3-1 viability, CellTiter-Glo ATP luminescence, 72 h; activity change, negative = cytotoxic: at 46.1 µM (top of the series)
Procedure, shortened: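 Cytotoxicity in the drug-sensitive parental line KB-3-1 was scored as loss of CellTiter-Glo luminescence following 72 h incubation with compound. Values come from curve fitting of normalized concentration-response data.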
% is set by controls: 0 for no effect and ±100 for the full control effect; potency is the fitted concentration of half-maximal effect.

SMILES	Potency	activity change, negative = cytotoxic
CC1Cc2cc(S(=O)(=O)CCC(=O)NCc3ccco3)ccc2N1C(=O)C1CC1 (stereo not drawn)	inconclusive: 29.1 µM [cytotoxic, single point]	
CCn1c(CCCc2ccc(OC)c(C)c2)n[nH]c1=S	inconclusive: 7.31 µM [cytotoxic, partial curve]	
COc1ccc(S(=O)(=O)Nc2cc3c4c(c2)CCC(=O)N4CCC3)cc1C		inactive: -31.6%
Cn1ncc(=S)[nH]c1=S	inconclusive: 14.6 µM [rising, partial curve]	
Cc1ccc(/C=N/NC(=O)C(=O)N/N=C/c2ccc(C)o2)o1	inconclusive: 0.0103 µM [rising, full curve]	
O=c1c2ccccc2nc2n1CCN2Cc1ccc(Cl)cc1	active: 16.4 µM	
COc1cccc(N2CCN(C(=O)c3ccc(CS(=O)c4ccccc4C)o3)CC2)c1 (stereo not drawn)	active: 1.03 µM	
Cc1ccc(/C=N/NC(=O)COc2ccccc2-c2ccccc2)cc1	inconclusive: 0.461 µM [cytotoxic, full curve, poor fit]	
CCc1c(Nc2ccccc2Cl)nc(N)[nH]c1=O	inconclusive: 20.6 µM [cytotoxic, single point]	
COCc1c(C(=O)OCc2nc(N)nc(Nc3ccccc3C)n2)oc2ccccc12	inconclusive: 29.1 µM [cytotoxic, single point]	
Cn1c(CN2CCCC2)nc2cc(NC(=O)c3cccs3)ccc21		inactive: 12.5%
O=C(NCc1ccco1)c1ccc(N2CCCCC2)c([N+](=O)[O-])c1	inconclusive: 0.206 µM [rising, full curve]	
O=c1c2ccccc2nc(/C=C/c2ccc3c(c2)OCO3)n1CCCO		inconclusive: -35.9% [cytotoxic]
CCc1cccc2c(C(=O)COC(=O)C3=NNC(=O)CC3)c[nH]c12	inconclusive: 29.1 µM [cytotoxic, single point]	
CCOC(=O)c1nn(-c2ccc(Br)cc2)cc1C(=O)c1cccc2ccccc12	inconclusive: 20.6 µM [cytotoxic, single point]	
COC(=O)c1sccc1NC(=O)c1cc(-c2ccc(C)cc2C)nc2ccccc12	inconclusive: 5.8 µM [cytotoxic, partial curve]	
CCCCCCC[n+]1ccc(/C=C/c2c[nH]c3ccccc23)c2ccccc21	active: 7.31 µM	
CCc1cccc(NC(=O)c2ccc(NC(=O)N3CCSc4ncccc43)cc2)c1	inconclusive: 20.6 µM [cytotoxic, single point]	
Cn1cncc1C#Cc1ccc(N2C(c3ccsc3)=Cc3ccc(F)cc3C2c2c[nH]c3ccccc23)cc1 (stereo not drawn)	inconclusive: 18.4 µM [cytotoxic, single point]	
COc1ccc(CCn2c(=N)c(C(=O)NCC3CCCO3)cc3c(=O)n4cccc(C)c4nc32)cc1OC (stereo not drawn)	inconclusive: 7.31 µM [cytotoxic, partial curve]	
CC1=C(C(=O)OC2CCCCCCC2)C(c2cc3c(cc2Br)OCO3)CC(=O)N1 (stereo not drawn)	inconclusive: 18.4 µM [cytotoxic, single point]	
CCOC(=O)c1ccc(N(CC2CO2)S(=O)(=O)c2ccc(C)cc2)cc1 (stereo not drawn)		inactive: 7.31%
Cc1ccc(C(=O)NCC(c2ccc3c(c2)OCO3)N2CCOCC2)cc1 (stereo not drawn)		inactive: -13.5%

SMILES	Potency	activity change, negative = cytotoxic
O=C1[C@H]2CCCC[C@H]2C(=O)N1CCCCN1CCN(c2nsc3ccccc23)CC1	inconclusive: 20.6 µM [cytotoxic, single point]	
C#CCOc1ccc(C2C3=C(COC3=O)Nc3cc4c(cc32)OCO4)cc1OC (stereo not drawn)	inconclusive: 0.651 µM [cytotoxic, full curve, poor fit]	
CCOc1ccc(CN(C)c2ccc(S(=O)(=O)N3CCN(C)CC3)cc2[N+](=O)[O-])cc1OC	active: 7.31 µM	
CC1(C)CC(=O)C2=C(C1)NC1=C(C(=O)c3ccccc31)C2c1ccc(Cl)cc1 (stereo not drawn)	inconclusive: 29.1 µM [cytotoxic, single point]	
Cc1ccc(C(NC(=O)NC(C)c2ccccc2)C(Cl)(Cl)Cl)cc1F (stereo not drawn)	inconclusive: 29.1 µM [cytotoxic, single point]	
Cn1c(=O)c2c(ncn2CC(COCc2ccccc2)OCc2ccccc2)n(C)c1=O (stereo not drawn)		inactive: -5.97%
Cc1ccc(C)c(S(=O)(=O)NC(C)CCc2ccccc2)c1 (stereo not drawn)	inconclusive: 0.0052 µM [cytotoxic, full curve, poor fit]	
C[C@H](NC(=O)c1[nH]cnc1C(=O)Nc1ccc(CNC(=O)OC(C)(C)C)cc1)C(=O)OCc1ccccc1	inconclusive: 29.1 µM [cytotoxic, single point]	
CCOC(=O)c1noc2ncnc(Nc3cccc(OC)c3)c12		inactive: -2.75%
C=CCc1cccc(/C=N/NC(=O)CNc2ccccc2)c1O		inactive: 9.46%
Cc1c(C(=O)NCc2ccc(C(F)(F)F)cc2)sc(=O)n1Cc1ccc(S(=O)(=O)N(C)C)cc1	inconclusive: 13 µM [cytotoxic, partial curve, poor fit]	
CCCN1C(=O)c2ccccc2NC1c1ccc(Cl)c(Cl)c1 (stereo not drawn)	inconclusive: 16.4 µM [cytotoxic, partial curve]	
CCOC(=O)C1=C(CS(=O)(=O)c2ccc(OC)c(Cl)c2)NC(=O)NC1c1cccc(OC)c1 (stereo not drawn)		inactive: 5.32%
COc1ccc(C(=O)N2c3cc4c(cc3C(C)=CC2(C)C)OCO4)cc1	inconclusive: 16.4 µM [cytotoxic, single point]	
COc1cccc(NC(=O)CSc2nc(-c3ccccc3Cl)nc3c2Cc2c(CO)cnc(C)c2O3)c1	inconclusive: 23.1 µM [rising, partial curve, poor fit]	
CCCn1c(SCC(=O)Nc2ccc(C(=O)Nc3ccccc3OC)cc2)n[nH]c1=O	inconclusive: 25.9 µM [rising, partial curve, poor fit]	
CC(C)(C)[C@H]1CCC(=O)N([C@H](CSc2ccccc2)Cc2ccccc2)CC1	inconclusive: 29.1 µM [cytotoxic, single point]	
COCC(=O)N/N=C\c1ccc(OC/C=C/c2ccccc2)c(OC)c1		inactive: -2.33%
CN(C)S(=O)(=O)N1CCN(C(=O)c2cccs2)CC1	inconclusive: 3.66 µM [rising, full curve]	
CC(C)c1ccc(/C=C/C(=O)NC(=S)Nc2ccc(CN3CCOCC3)cc2)cc1		inactive: -25%
CC(C)CN(C)Cc1c(C(=O)N2CCc3ccccc3C2)nc2ccc(Cl)cn12	inconclusive: 29.1 µM [cytotoxic, single point]	
Cc1ccc(S(=O)(=O)N2CCC(=O)N([C@H](COCc3cccc(Cl)c3)Cc3ccccc3)CC2)cc1	inconclusive: 18.4 µM [cytotoxic, single point]	
COc1ccc(Br)c(C(=O)OCC(=O)N2CCC(Cc3ccccc3)CC2)c1	inconclusive: 29.1 µM [cytotoxic, single point]	

SMILES	Potency	activity change, negative = cytotoxic
COc1cccc(NC(=O)CSc2nnc(-c3ccco3)c(-c3ccco3)n2)c1	inconclusive: 20.6 µM [rising, single point]	
COc1ccc(C2C=C(c3ccccc3)Nc3nc(NC(=O)/C=C/c4ccccc4Cl)nn32)cc1 (stereo not drawn)	inconclusive: 3.26 µM [cytotoxic, partial curve, poor fit]	
O=C(Cn1ncc2c([nH]c3ccccc32)c1=O)N1CCOCC1		inactive: 12.7%
CC[n+]1cc(C)ccc1/C=C/c1ccc(N(C)C)cc1	active: 1.84 µM	
Nc1c(C(=O)Nc2cccc(F)c2)c2ccccn2c1C(=O)c1ccccc1		inactive: 6.9%
Cc1ccc(Cn2c(NCCc3ccccc3)nc3c2c(=O)n(C)c(=O)n3C)cc1	inconclusive: 23.1 µM [cytotoxic, single point]	
CC(=O)N1C(C)(C)CC(=NOS(=O)(=O)c2ccccc2)CC1(C)C		inactive: -11.6%
C(=C\c1c[nH]c2ccccc12)/c1ccnc2ccccc12		inactive: -12.9%
Cc1ccc(N=Cc2c(O)n(C)c(=O)n(C)c2=O)nc1		inactive: -7.37%
Cc1c(OC(C)C(=O)NCCN2CCOCC2)ccc2c3c(c(=O)oc12)CCC3 (stereo not drawn)		inactive: 3.4%
CCCCn1nnnc1C(c1cc2ccccc2o1)N(CCC#N)Cc1ccccc1 (stereo not drawn)	inconclusive: 29.1 µM [cytotoxic, single point]	
O=C(Nc1cc(Sc2ccccn2)cc([N+](=O)[O-])c1)c1ccc(Cl)cc1	active: 20.6 µM	
CN1/C(=C\C(=S)NC(=O)c2ccc([N+](=O)[O-])cc2)C(C)(C)c2ccccc21		inactive: -24.6%
Cc1cc(C)c(OCC(=O)Nc2ccc(S(=O)(=O)N3CCCC3)cc2)c(C)c1	inconclusive: 29.1 µM [rising, single point]	
O=C(Nc1nc2ccccc2s1)c1c(F)cccc1Cl		inconclusive: -4.06%
CC1=Nc2cc(C(=O)NCC3CCCO3)ccc2Sc2ccc(C)cc21 (stereo not drawn)	inconclusive: 0.651 µM [cytotoxic, full curve, poor fit]	
COc1ccccc1C(=O)Nc1c(C(=O)Nc2ccccc2F)oc2ccccc12	inconclusive: 16.4 µM [cytotoxic, partial curve, poor fit]	
CCCCc1c(-c2ccccc2OC)ncn1CCc1cccc(F)c1	inconclusive: 25.9 µM [cytotoxic, single point]	
O=C(COc1ccccc1Cl)NCCNC(=O)c1ccccn1	inconclusive: 2.59 µM [rising, partial curve, poor fit]	
COc1cccc(CNS(=O)(=O)c2ccc3c(c2)C(C(C)C)C(=O)N3)c1 (stereo not drawn)	inconclusive: 29.1 µM [cytotoxic, single point]	
CCOC(=O)C1=C(C)NC(C)=C(C(=O)OCC)C1C(=O)OCC(=O)N(CC)C1CCS(=O)(=O)C1 (stereo not drawn)		inconclusive: -3.2%
O=C(Nc1ccc2ccccc2c1)Nc1nnc(-c2ccc(Cl)cc2Cl)s1		inactive: -2.94%

Looked up above.
Potency, CCc1cccc(NC(=O)c2ccc(NC(=O)N3CCSc4ncccc43)cc2)c1 reads inconclusive: 20.6 µM [cytotoxic, single point]
activity change, negative = cytotoxic, CCOC(=O)C1=C(CS(=O)(=O)c2ccc(OC)c(Cl)c2)NC(=O)NC1c1cccc(OC)c1 (stereo not drawn) reads inactive: 5.32%
